Results on 35 compounds are retold here after PubChem BioAssay AID1487 (National Center for Advancing Translational Sciences (NCATS), 2009).

A word on the AC50: it is the concentration giving half of the maximal activity seen.

The experiment can be described thus: qHTS Assay for Modulators of Lamin A Splicing. Particulars: HeLa LMNA splicing GFP/RFP minigene ratio, 48 h. A digest of the protocol:
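S3 HeLa cells stably expressing lamin A-EGFP splicing minigene plus DsRed2, 600 cells/well, 48 h compound exposure at 37C. Laser-scanning cytometry; analysed as GFP (500-530 nm)/RFP (575-640 nm) total intensity ratio; 0.5% DMSO vehicle.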
On the technique in general: qHTS replaces the single test concentration by a dilution series.

[1] abbreviates: measured here: GFP splicing reporter channel.
[2] abbreviates: measured here: RFP viability control channel.

Some of the results follow. These are further read-outs of the screen, such as a control signal, another cell line or another target. No call is given for them. The list favours compounds with an active or inconclusive main result. Words in brackets tell the shape of the fitted curve; partial curves, single points and poor fits give uncertain potencies.

With `CC(C)c1ccc2c(c1)c(SC(C)(C)C)c(CC(C)(C)C(=O)O)n2Cc1ccc(Cl)cc1`, the AC50 under setting [1] is 20 µM [falling, partial curve] and the concentration at half-maximal activity (AC50) under setting [2] is 17.8 µM [falling, partial curve]. Turning to `Cc1nn(-c2ccccc2)c(Cl)c1/C=N/NC(=O)c1ccccc1NS(=O)(=O)c1cccs1`, the AC50 runs as follows: under setting [1], 1.26 µM [rising, partial curve]; under setting [2], 14.1 µM [rising, partial curve]. In the case of `Cc1ccc(NCc2ccccc2OCc2ccccc2F)cc1`, under setting [2], the AC50 was 17.8 µM [rising, single point].

As for `Cc1nn(-c2ccccc2)c2[nH]c(=O)c(CNc3ccc4c(c3)OCCO4)cc12`, the AC50 under setting [1] is 8.91 µM [rising, partial curve] and the AC50 under setting [2] is 3.55 µM [rising, partial curve, poor fit].

Consider `CCCCOc1ccc(S(=O)(=O)Nc2ccc(NC(C)=O)cc2)cc1`, for which the half-maximal activity concentration (AC50) under setting [1] was 4.47 µM [rising, full curve, poor fit] and the AC50 under setting [2] is 11.2 µM [rising, partial curve]. For `CN(C)S(=O)(=O)c1ccc(C(=O)Nc2ccccc2[N+](=O)[O-])cc1`, the AC50 under setting [1] is 12.6 µM [rising, single point].

As to `COC(=O)[C@@H]1C[C@H]1[C@@H](NC(=O)c1ccccc1)c1ccccc1`, under setting [2], the AC50 was 35.5 µM [rising, single point]. Turning to `COc1ccc(OC)c(C2C3=C(COC3=O)Nc3cc4c(cc32)OCO4)c1` (stereo not given), the AC50 runs as follows: under setting [1], 0.224 µM [falling, full curve]; under setting [2], 0.251 µM [falling, full curve]. For the compound `CC(C)NC(=S)N/N=C/c1c[nH]c2ccccc12`, under setting [2], the AC50 was 10 µM [rising, partial curve]. On the same count and under the same terms, for `CN(C)CCCNC(=S)N(Cc1cccs1)Cc1cc2cc3c(cc2[nH]c1=O)OCCO3` the value was 0.01 µM [falling, full curve, poor fit]. For the compound `N/C(=N\OC(=O)c1ccc2ccccc2c1)c1ccc(Br)cc1`, the concentration at half-maximal activity (AC50) is, setting by setting: under setting [1], 1.78 µM [rising, full curve, poor fit]; under setting [2], 1.12 µM [rising, full curve, poor fit].

In the case of `C[C@@H](CCc1ccccc1)NC[C@H](O)c1ccc(O)c(C(N)=O)c1`, under setting [2], the AC50 is 0.282 µM [falling, single point].

For the compound `Cc1cc(-n2c(C)cc(C(=O)CSc3ccc4c(c3)OCCO4)c2C)no1`, the AC50 is 14.1 µM [rising, partial curve] under setting [1] and 15.8 µM [rising, partial curve] under setting [2]. Turning to `Cc1cc(=O)[nH]c2nnc(SCc3cccc(F)c3)n12`, the AC50 under setting [1] is 0.1 µM [falling, single point]. With `CCOC(=O)NNc1nncc2ccccc12`, the AC50 under setting [2] is 7.94 µM [rising, single point]. On the same count and under the same terms, for `O=C(NCCSCc1ccco1)Nc1cccc(Cl)c1` the value was 17.8 µM [rising, single point]. On the same count and under the same terms, for `CC1CCCN(S(=O)(=O)c2ccc(S(=O)(=O)NC(C)c3cccs3)cc2)C1` (stereo not given) the value was 17.8 µM [rising, single point]. On to `CCN(CC(=O)Nc1cccc(OC)c1)c1ncnc2sc(C)c(C)c12`, for which the AC50 is 5.01 µM [rising, full curve, poor fit] under setting [1] and 3.98 µM [rising, full curve] under setting [2]. Turning to `O=C(O)c1ccc(Cn2cnc3scc(-c4ccccc4)c3c2=O)cc1`, the AC50 under setting [1] was 14.1 µM [rising, partial curve, poor fit].

On to `CCCn1cc(SCC(=O)Nc2nnc(C)s2)c2ccccc21`, for which the AC50 under setting [1] was 2.82 µM [falling, partial curve] and the AC50 under setting [2] was 3.98 µM [falling, partial curve, poor fit]. As for `Cc1nc(NC(=O)C2CC2)sc1C(=O)NC1CCCCC1`, the AC50 under setting [2] was 31.6 µM [falling, single point]. Still for that read-out and setting: for `COc1ccc(C(=O)CSc2nc3cccnc3n2C)cc1` the value was 25.1 µM [rising, single point]; for `CSc1nc2ccc(S(=O)(=O)NC3CCCCC3)cc2s1`, 11.2 µM [rising, partial curve, poor fit].

Consider `O=[N+]([O-])c1cccc(S(=O)(=O)c2ccc(N3CCCCC3)c([N+](=O)[O-])c2)c1`, for which the concentration at half-maximal activity (AC50) under setting [1] was 35.5 µM [rising, single point] and the AC50 under setting [2] is 35.5 µM [rising, single point]. In the case of `CCC1(C)COC(C)(CC(=O)NNC(=O)Nc2ccccc2)OC1` (stereo not given), under setting [2], the AC50 was 0.794 µM [rising, full curve, poor fit]. For the compound `Cc1ccc(C)c(N2CCN(C(=O)Cn3cccc3)CC2)c1`, the AC50 reads like this: under setting [1], 35.5 µM [rising, single point]; under setting [2], 31.6 µM [rising, single point].

Regarding `CCOC(=O)C1CN(S(=O)(=O)c2ccc(C)cc2)CCN1S(=O)(=O)c1ccc(C)cc1` (stereo not given), the half-maximal activity concentration (AC50) under setting [2] is 35.5 µM [rising, single point]. For the compound `CCC1S/C(=N/N=C/c2cccs2)NC1=O` (stereo not given), the AC50 by setting is: under setting [1], 0.316 µM [rising, partial curve]; under setting [2], 0.316 µM [rising, full curve, poor fit]. For the compound `COc1ccc(N2CCN(C(=O)c3ccc(NS(=O)(=O)c4ccc(F)c(F)c4)cc3)CC2)cc1`, the AC50 is, setting by setting: under setting [1], 14.1 µM [rising, single point]; under setting [2], 28.2 µM [rising, single point].

On to `Cc1cccc(OCCCC(=O)Nc2ccc3c(c2)OCO3)c1`, for which the AC50 under setting [1] is 35.5 µM [rising, single point]. On to `Cn1c2c(c(=O)[nH]c1=O)C(c1ccc(O)cc1)C1=C(N2)c2ccccc2C1=O` (stereo not given), for which the AC50 under setting [1] is 35.5 µM [falling, single point] and the AC50 under setting [2] was 3.55 µM [rising, single point]. With `O=S(=O)(c1ccccc1)N(CC(O)Cn1c2ccccc2c2ccccc21)c1ccccc1` (stereo not given), the AC50 was 22.4 µM [falling, single point] under setting [1] and 14.1 µM [falling, partial curve] under setting [2].

Turning to `CSc1sc(C(=O)OC(C)C)c2c1C(=O)CC(C)(C)C2`, under setting [2], the AC50 was 1.26 µM [falling, partial curve, poor fit]. On the same count and under the same terms, the value for `CCC(=O)N(NC1=NS(=O)(=O)c2ccccc21)S(=O)(=O)c1ccc(C)cc1` was 0.0251 µM [falling, partial curve, poor fit]; that for `CC1CC(C)CN(S(=O)(=O)c2ccccc2[N+](=O)[O-])C1` (stereo not given) was 11.2 µM [rising, partial curve].
